Patent US20220386609A1, “META-DIAMIDE INSECTICIDES” (FMC Corporation, priority 2019, published 2022)
Some of these results come from one statement about several compounds together.

Key:
[1] = system: diamondback moth (Plutella xylostella (L.)); experiment: Test A: control of diamondback moth on mustard plant, foliar spray; type: in vivo; conditions: neonate larvae, 6 days, criterion is feeding damage bound and/or 100% mortality
[2] = system: fall armyworm (Spodoptera frugiperda (J. E. Smith)); experiment: Test B: control of fall armyworm on corn plant, foliar spray; type: in vivo; conditions: 1-day-old larvae, 6 days, criterion is feeding damage bound and/or 100% mortality

Compound | control efficacy: feeding damage (40% or less feeding damage and/or 100% mortality) ([1]; tested at 50 ppm) | also measured
O=C(CC(c1cc(F)cc(F)c1)C(F)(F)F)Nc1ccc(Cl)c(C(=O)Nc2ccc(C(F)(F)F)nc2Cl)c1 (stereo not shown) [Compound 66] | – | control efficacy: feeding damage (40% or less feeding damage and/or 100% mortality) ([1]; tested at 250 ppm): ≤ 40%
O=C(CC(c1ccccc1)C(F)(F)F)Nc1ccc(Cl)c(C(=O)Nc2ncc(C(F)(F)F)cc2F)c1 (stereo not shown) [Compound 70] | – | control efficacy: feeding damage (40% or less feeding damage and/or 100% mortality) ([1]; tested at 250 ppm): ≤ 40%
CC(C)NC(=O)c1cc(NC(=O)CC(c2cc(Cl)cc(Cl)c2)C(F)(F)F)ccc1Cl (stereo not shown) [Compound 74] | ≤ 40% | control efficacy: feeding damage (40% or less feeding damage and/or 100% mortality) ([1]; tested at 250 ppm): ≤ 40%
O=C(CC(c1ccc(Cl)c(Cl)c1)C(F)(F)F)Nc1ccc(F)c(C(=O)NCC2CC2)c1 (stereo not shown) [Compound 77] | – | control efficacy: feeding damage (40% or less feeding damage and/or 100% mortality) ([1]; tested at 250 ppm): ≤ 40%
O=C(CC(c1cccc(C(F)(F)F)c1)C(F)(F)F)Nc1ccc(Cl)c(C(=O)Nc2ccc(Cl)cc2Cl)c1 (stereo not shown) [Compound 81] | – | control efficacy: feeding damage (40% or less feeding damage and/or 100% mortality) ([2]; tested at 50 ppm): ≤ 40%
O=C(CC(c1cccc(C(F)(F)F)c1)C(F)(F)F)Nc1ccc(F)c(C(=O)Nc2ccc(F)cc2F)c1 (stereo not shown) [Compound 86] | ≤ 40% | control efficacy: feeding damage (40% or less feeding damage and/or 100% mortality) ([1]; tested at 10 ppm): ≤ 40%
O=C(CC(c1ccc(Cl)c(Cl)c1)C(F)(F)F)Nc1ccc(Cl)c(C(=O)Nc2c(F)ccnc2F)c1 (stereo not shown) [Compound 95] | ≤ 40% | –
O=C(CC(c1cccc(C(F)(F)F)c1)C(F)(F)F)Nc1ccc(Cl)c(C(=O)Nc2ncc(Cl)cc2Cl)c1 (stereo not shown) [Compound 96] | ≤ 40% | control efficacy: feeding damage (40% or less feeding damage and/or 100% mortality) ([1]; tested at 10 ppm): ≤ 40%
O=C(CC(c1cccc(C(F)(F)F)c1)C(F)(F)F)Nc1ccc(Cl)c(C(=O)Nc2ccc(F)c(F)c2)c1 (stereo not shown) [Compound 100] | – | control efficacy: feeding damage (40% or less feeding damage and/or 100% mortality) ([2]; tested at 10 ppm): ≤ 40%
O=C(CC(c1cccc(C(F)(F)F)c1)C(F)(F)F)Nc1ccc(Cl)c(C(=O)Nc2cccc(F)c2F)c1 (stereo not shown) [Compound 109] | – | control efficacy: feeding damage (40% or less feeding damage and/or 100% mortality) ([1]; tested at 10 ppm): ≤ 40%
O=C(CC(c1cccc(C(F)(F)F)c1)C(F)(F)F)Nc1ccc(Cl)c(C(=O)NCc2ccc(F)cc2F)c1 (stereo not shown) [Compound 116] | ≤ 40% | –
COCCNC(=O)c1cc(NC(=O)CC(c2cccc(C(F)(F)F)c2)C(F)(F)F)ccc1Cl (stereo not shown) [Compound 117] | ≤ 40% | –
CSCCNC(=O)c1cc(NC(=O)CC(c2cccc(C(F)(F)F)c2)C(F)(F)F)ccc1Cl (stereo not shown) [Compound 121] | ≤ 40% | –
CS(=O)(=O)CCNC(=O)c1cc(NC(=O)CC(c2cccc(C(F)(F)F)c2)C(F)(F)F)ccc1Cl (stereo not shown) [Compound 122] | ≤ 40% | –
O=C(CC(c1cc(Cl)cc(Cl)c1)C(F)(F)F)Nc1ccc(C(F)(F)F)c(C(=O)Nc2ccccc2F)c1 (stereo not shown) [Compound 126] | – | control efficacy: feeding damage (40% or less feeding damage and/or 100% mortality) ([1]; tested at 10 ppm): ≤ 40%
O=C(CC(c1cc(Cl)cc(Cl)c1)C(F)(F)F)Nc1ccc(C(F)(F)F)c(C(=O)Nc2ccc(OC(F)(F)F)cc2)c1 (stereo not shown) [Compound 127] | ≤ 40% | –
O=C(CC(c1cc(Cl)cc(Cl)c1)C(F)(F)F)Nc1ccc(C(F)(F)F)c(C(=O)Nc2ccc(F)c(Cl)c2)c1 (stereo not shown) [Compound 130] | ≤ 40% | –
O=C(CC(c1cccc(C(F)(F)F)c1)C(F)(F)F)Nc1ccc(C(F)(F)F)c(C(=O)Nc2ccc(F)c(Cl)c2)c1 (stereo not shown) [Compound 135] | ≤ 40% | –
O=C(CC(c1cccc(C(F)(F)F)c1)C(F)(F)F)Nc1ccc(C(F)(F)F)c(C(=O)Nc2ccc(OC(F)(F)F)cc2)c1 (stereo not shown) [Compound 139] | ≤ 40% | –
O=C(CC(O)(c1cccc(C(F)(F)F)c1)C(F)(F)F)Nc1ccc(Cl)c(C(=O)Nc2ccc(F)cc2)c1 (stereo not shown) [Compound 150] | ≤ 40% | –
O=C(Nc1ccc(F)c(C(=O)NCC(F)(F)F)c1)NC(c1cccc(C(F)(F)F)c1)C(F)(F)F (stereo not shown) [Compound 151] | ≤ 40% | control efficacy: feeding damage (40% or less feeding damage and/or 100% mortality) ([1]; tested at 10 ppm): ≤ 40%
